Reference: patent US20220002293A1, “8-CYCLOPENTYL-7-OXO-2-(4-PIPERAZIN-1-YL-PHENYLAMINO)-7, 8-DIHYDRO-PYRIDO [2,3-D]PYRIMIDINE-6-CARBONITRILE AND USES THEREOF IN TREATING PROLIFERATIVE DISORDERS” (ONCONOVA THERAPEUTICS, INC., priority 2018, published 2022)

Tested on: HeLa (human cervical cancer)
Test: Cytotoxicity assay (CellTiter-Glo), HeLa
Type: cell-based
Conditions: 72 h, read-out: Absolute IC50
From the text: Determination of the Half Maximal Inhibition Concentration IC50: • 1.

SMILES: N.N.[Cl][Pt][Cl] [Cisplatin, reference compound]
- IC50: 270 nM
